Article PMC9668932
Results are given in words; binding and its absence hold for the method and conditions named. For some of these results: Binding seen in cells or lysates may run through a third protein. Some results given as binding are weak or reduced against the parent protein; the word gives no strength.

The chains behind the UniProt entries cited, without tags or fusion partners. Where a name states a change or a piece, a line headed by the entry shows the natural chain unless it says otherwise. A line that says so, or that is headed by a name, gives the form on record, which may keep a tag or linker. Residues count along the entry.
human aryl hydrocarbon receptor, residues 1-437 (P35869, residues 1-437): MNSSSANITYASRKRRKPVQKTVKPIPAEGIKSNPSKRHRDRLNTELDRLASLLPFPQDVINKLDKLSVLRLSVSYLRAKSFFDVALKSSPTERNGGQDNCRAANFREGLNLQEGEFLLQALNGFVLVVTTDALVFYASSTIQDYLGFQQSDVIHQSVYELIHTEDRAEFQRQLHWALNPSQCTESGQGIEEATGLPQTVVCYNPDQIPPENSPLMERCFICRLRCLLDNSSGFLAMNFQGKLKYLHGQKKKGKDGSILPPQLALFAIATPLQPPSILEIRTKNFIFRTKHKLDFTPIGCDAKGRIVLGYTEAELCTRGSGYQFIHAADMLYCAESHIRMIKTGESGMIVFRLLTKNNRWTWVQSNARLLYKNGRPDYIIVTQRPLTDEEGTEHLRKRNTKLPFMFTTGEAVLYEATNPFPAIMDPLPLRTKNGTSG
Twin Strep-tag-MBP-TEV site-AHR_(1-437) T282A (P35869, form named): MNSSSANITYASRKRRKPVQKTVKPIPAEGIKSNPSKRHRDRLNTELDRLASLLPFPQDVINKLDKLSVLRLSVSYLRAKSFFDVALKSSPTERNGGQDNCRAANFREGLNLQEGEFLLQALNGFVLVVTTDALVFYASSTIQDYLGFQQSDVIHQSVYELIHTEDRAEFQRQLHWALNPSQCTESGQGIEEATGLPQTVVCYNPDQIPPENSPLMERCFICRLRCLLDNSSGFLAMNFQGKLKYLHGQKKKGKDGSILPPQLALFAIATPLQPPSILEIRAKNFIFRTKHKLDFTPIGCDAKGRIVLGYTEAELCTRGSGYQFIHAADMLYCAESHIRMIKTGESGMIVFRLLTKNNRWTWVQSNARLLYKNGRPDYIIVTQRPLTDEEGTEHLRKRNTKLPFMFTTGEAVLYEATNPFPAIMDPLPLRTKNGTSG
Twin Strep-tag-MBP-TEV site-AHR_(1-437) F404A (P35869, form named): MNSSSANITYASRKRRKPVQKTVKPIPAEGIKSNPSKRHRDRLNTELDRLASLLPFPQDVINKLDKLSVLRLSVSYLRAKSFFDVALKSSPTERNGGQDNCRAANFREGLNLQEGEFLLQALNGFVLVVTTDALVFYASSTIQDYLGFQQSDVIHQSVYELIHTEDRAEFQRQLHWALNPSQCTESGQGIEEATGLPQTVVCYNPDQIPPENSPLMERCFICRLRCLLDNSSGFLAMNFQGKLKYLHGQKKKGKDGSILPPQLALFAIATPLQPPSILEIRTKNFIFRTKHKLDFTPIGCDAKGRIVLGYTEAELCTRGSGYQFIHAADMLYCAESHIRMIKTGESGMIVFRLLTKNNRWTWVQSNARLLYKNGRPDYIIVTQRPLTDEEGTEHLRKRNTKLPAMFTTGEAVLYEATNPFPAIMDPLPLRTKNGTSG
Twin Strep-tag-MBP-TEV site-AHR_(1-437) I277A (P35869, form named): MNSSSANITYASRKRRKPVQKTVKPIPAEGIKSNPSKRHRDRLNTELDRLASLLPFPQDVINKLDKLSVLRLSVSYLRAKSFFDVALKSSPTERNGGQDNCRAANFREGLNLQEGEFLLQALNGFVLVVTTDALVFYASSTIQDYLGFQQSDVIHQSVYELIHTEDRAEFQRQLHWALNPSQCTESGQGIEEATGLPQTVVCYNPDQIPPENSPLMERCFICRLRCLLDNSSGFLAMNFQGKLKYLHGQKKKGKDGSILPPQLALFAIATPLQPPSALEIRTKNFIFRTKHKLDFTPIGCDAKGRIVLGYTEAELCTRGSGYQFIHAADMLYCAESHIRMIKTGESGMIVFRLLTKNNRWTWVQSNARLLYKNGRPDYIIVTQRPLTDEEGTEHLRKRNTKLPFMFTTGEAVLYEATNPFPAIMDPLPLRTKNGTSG
Twin Strep-tag-MBP-TEV site-AHR_(1-437) F406A (P35869, form named): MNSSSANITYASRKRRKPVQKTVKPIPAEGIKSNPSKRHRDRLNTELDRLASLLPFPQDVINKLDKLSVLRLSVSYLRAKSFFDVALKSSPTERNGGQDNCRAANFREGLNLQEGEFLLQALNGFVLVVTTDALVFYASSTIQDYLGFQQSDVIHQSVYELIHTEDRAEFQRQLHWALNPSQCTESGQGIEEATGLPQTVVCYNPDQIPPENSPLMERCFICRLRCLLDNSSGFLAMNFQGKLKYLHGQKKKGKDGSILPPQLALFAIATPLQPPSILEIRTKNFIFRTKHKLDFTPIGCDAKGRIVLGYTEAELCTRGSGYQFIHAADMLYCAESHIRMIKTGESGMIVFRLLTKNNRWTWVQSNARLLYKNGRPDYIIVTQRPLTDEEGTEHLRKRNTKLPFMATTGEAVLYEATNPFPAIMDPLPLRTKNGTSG
Twin Strep-tag-MBP-TEV site-AHR_(1-437) S276A (P35869, form named): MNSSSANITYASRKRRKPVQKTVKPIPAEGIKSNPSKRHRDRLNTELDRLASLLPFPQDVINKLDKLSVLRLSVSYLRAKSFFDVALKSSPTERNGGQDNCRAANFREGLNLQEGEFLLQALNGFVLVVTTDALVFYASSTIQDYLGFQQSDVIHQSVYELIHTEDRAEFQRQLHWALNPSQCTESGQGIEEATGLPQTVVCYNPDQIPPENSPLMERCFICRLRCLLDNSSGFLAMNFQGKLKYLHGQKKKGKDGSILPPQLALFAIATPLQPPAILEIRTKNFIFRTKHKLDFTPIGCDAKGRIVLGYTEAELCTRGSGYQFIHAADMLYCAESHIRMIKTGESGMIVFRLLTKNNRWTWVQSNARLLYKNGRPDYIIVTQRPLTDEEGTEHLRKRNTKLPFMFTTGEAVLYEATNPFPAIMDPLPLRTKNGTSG
Twin Strep-tag-MBP-TEV site-AHR_(1-437), residue 278 to alanine (P35869, form named): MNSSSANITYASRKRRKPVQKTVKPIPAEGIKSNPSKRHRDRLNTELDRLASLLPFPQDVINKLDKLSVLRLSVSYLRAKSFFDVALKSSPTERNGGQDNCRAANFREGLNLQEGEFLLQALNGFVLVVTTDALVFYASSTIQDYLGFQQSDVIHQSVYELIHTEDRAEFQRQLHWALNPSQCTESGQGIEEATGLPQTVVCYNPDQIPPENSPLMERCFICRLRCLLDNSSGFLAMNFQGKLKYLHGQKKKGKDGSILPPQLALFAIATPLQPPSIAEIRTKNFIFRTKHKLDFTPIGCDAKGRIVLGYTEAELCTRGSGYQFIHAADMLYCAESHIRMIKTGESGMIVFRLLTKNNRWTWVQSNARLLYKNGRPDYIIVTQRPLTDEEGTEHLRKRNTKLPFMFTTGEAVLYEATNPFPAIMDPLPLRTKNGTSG
Twin Strep-tag-MBP-TEV site-AHR_(1-437) P275A (P35869, form named): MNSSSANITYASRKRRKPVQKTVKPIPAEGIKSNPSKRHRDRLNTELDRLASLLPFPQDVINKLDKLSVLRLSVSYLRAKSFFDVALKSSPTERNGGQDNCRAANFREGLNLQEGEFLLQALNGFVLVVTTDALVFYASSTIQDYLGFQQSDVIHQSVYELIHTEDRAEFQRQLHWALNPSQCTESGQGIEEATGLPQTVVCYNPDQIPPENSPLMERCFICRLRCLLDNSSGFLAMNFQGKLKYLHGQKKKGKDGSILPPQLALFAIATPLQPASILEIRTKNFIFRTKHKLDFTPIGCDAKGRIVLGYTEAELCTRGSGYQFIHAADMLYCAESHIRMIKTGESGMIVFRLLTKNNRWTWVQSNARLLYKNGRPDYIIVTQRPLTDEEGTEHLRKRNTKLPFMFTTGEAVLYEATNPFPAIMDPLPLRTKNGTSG
Twin Strep-tag-MBP-TEV site-AHR_(1-437) R281A (P35869, form named): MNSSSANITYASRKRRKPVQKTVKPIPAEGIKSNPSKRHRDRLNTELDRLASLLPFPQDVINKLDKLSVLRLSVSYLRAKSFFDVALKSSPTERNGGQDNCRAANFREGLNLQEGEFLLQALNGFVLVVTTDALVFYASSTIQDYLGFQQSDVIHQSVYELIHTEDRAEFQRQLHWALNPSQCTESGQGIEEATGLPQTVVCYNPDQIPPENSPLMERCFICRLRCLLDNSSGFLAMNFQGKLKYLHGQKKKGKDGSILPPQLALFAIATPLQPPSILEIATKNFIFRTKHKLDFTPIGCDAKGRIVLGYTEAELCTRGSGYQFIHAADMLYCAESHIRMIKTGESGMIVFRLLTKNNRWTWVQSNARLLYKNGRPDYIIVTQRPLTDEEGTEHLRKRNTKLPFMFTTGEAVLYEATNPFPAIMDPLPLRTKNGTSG
Twin Strep-tag-MBP-TEV site-AHR_(1-437) Y414A (P35869, form named): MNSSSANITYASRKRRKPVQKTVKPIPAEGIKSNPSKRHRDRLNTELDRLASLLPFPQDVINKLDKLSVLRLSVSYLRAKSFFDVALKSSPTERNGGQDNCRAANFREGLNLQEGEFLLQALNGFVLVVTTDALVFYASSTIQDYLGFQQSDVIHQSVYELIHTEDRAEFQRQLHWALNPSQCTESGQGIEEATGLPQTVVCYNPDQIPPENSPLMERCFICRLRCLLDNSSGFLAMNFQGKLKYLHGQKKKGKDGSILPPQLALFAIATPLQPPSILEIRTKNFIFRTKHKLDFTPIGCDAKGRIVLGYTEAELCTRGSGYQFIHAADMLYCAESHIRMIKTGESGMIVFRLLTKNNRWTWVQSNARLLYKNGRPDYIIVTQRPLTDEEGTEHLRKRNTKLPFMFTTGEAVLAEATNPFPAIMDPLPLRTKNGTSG
Twin Strep-tag-MBP-TEV site-AHR_(1-437) I280A (P35869, form named): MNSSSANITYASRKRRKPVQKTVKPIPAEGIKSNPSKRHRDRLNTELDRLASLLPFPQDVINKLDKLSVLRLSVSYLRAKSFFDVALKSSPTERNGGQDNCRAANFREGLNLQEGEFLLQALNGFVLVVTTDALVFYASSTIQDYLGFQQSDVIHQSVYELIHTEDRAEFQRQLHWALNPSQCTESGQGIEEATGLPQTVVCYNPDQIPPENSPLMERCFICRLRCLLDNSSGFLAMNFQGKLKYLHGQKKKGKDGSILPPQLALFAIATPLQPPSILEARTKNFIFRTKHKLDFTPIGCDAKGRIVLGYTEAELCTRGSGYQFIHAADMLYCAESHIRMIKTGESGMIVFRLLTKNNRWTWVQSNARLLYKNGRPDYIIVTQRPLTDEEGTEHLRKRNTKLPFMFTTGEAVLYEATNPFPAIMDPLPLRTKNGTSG
Twin Strep-tag-MBP-TEV site-AHR_(1-437), residue 279 to alanine (P35869, form named): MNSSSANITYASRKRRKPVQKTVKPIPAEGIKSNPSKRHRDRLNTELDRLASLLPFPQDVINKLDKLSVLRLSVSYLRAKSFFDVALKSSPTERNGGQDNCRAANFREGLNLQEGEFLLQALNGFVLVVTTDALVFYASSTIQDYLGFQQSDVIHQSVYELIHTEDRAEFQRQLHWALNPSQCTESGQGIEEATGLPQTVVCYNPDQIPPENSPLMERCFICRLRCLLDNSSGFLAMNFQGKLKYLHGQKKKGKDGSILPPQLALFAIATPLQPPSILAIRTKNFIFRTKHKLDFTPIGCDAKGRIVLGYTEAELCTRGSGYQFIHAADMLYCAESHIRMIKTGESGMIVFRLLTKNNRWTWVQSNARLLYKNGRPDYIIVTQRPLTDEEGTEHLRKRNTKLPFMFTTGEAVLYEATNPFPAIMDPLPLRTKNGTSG
UniProt P08238: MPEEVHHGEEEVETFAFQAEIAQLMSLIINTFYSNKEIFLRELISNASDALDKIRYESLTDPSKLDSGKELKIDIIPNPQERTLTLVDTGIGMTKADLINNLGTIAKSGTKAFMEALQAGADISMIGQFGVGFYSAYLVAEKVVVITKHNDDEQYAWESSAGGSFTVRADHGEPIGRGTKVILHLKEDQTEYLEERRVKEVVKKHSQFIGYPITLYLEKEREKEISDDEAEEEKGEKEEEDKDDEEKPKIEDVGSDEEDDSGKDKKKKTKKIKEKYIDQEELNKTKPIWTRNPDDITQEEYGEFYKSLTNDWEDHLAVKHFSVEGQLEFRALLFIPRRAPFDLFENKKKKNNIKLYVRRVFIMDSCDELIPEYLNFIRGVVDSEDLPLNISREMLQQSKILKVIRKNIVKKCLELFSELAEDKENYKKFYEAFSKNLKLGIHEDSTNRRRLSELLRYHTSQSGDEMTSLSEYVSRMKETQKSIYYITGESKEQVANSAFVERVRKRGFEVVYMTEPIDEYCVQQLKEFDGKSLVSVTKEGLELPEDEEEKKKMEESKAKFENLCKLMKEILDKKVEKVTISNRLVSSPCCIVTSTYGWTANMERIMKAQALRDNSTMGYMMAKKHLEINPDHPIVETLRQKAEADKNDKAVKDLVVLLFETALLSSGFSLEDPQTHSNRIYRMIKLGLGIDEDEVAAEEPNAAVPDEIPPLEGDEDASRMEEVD

How the values were obtained:
[1] = molecular target: Twin Strep-tag-MBP-TEV site-AHR_(1-437) T282A (human) (UniProt P35869); test: co-IP; HEK293F co-transfected with Twin Strep-MBP-AHR(1-437), His10-FLAG-Hsp90 and Myc-XAP2; cleared lysate on anti-MBP magnetic beads, 1 h on ice; 20 mM Bis-Tris-HCl pH 7.0, 10 mM KCl, 10 mM MgCl2, 20 mM Na2MoO4, 2 mM BME; Western blot with anti-tag antibodies
[2] = molecular target: Twin Strep-tag-MBP-TEV site-AHR_(1-437) F404A (human) (UniProt P35869); test: as above
[3] = molecular target: Twin Strep-tag-MBP-TEV site-AHR_(1-437) I277A (human) (UniProt P35869); test: as above
[4] = molecular target: Twin Strep-tag-MBP-TEV site-AHR_(1-437) F406A (human) (UniProt P35869); test: as above
[5] = molecular target: Twin Strep-tag-MBP-TEV site-AHR_(1-437) S276A (human) (UniProt P35869); test: as above
[6] = molecular target: Twin Strep-tag-MBP-TEV site-AHR_(1-437), residue 278 to alanine (human) (UniProt P35869); test: as above
[7] = molecular target: Twin Strep-tag-MBP-TEV site-AHR_(1-437) (human) (UniProt P35869); test: as above
[8] = molecular target: Twin Strep-tag-MBP-TEV site-AHR_(1-437) P275A (human) (UniProt P35869); test: as above
[9] = molecular target: Twin Strep-tag-MBP-TEV site-AHR_(1-437) R281A (human) (UniProt P35869); test: as above
[10] = molecular target: Twin Strep-tag-MBP-TEV site-AHR_(1-437) Y414A (human) (UniProt P35869); test: as above
[11] = molecular target: Twin Strep-tag-MBP-TEV site-AHR_(1-437) I280A (human) (UniProt P35869); test: as above
[12] = molecular target: Twin Strep-tag-MBP-TEV site-AHR_(1-437), residue 279 to alanine (human) (UniProt P35869); test: as above
[13] = molecular target: human aryl hydrocarbon receptor, residues 1-437 (human) (UniProt P35869); test: cryo-EM structure; ternary Hsp90-XAP2-AHR complex, co-expressed in Sf9 and co-purified, with indirubin at 5x molar excess; 20 mM Bis-Tris-HCl pH 7.0, 50 mM NaCl, 10 mM KCl, 10 mM MgCl2, 20 mM Na2MoO4, 2 mM BME; global map 2.85 Å, focused map 4.07 Å; both purified

Measured: binding

His10-tag-FLAG-tag-TEV site-Hsp90_(1-724) (from UniProt P08238 1-724)
not listed: [13]
binds: all other assays above

heat shock protein HSP 90-beta, full length, His6-tagged (from UniProt P08238 1-724)
binds: [13]
